Results are given in words; binding and its absence hold for the method and conditions named. Some binding calls cover weakened binding; strength is not graded here.

The chains behind the UniProt entries cited, without tags or fusion partners.
UniProt P22336: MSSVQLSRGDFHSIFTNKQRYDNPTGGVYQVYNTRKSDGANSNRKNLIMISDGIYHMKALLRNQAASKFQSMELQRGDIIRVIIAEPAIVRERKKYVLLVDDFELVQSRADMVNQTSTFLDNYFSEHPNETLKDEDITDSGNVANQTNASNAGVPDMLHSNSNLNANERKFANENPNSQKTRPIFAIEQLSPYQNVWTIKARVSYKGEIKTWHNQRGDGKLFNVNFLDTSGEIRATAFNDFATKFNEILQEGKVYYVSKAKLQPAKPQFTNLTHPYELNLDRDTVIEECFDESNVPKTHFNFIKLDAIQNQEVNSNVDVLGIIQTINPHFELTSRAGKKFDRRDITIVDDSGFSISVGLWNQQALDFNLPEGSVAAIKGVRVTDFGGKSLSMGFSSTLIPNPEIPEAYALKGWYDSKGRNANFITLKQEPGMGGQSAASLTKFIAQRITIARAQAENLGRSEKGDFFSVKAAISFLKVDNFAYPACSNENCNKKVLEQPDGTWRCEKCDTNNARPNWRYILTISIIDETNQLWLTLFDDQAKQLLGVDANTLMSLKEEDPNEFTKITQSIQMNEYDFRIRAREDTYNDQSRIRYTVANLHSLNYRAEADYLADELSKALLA
UniProt P26754: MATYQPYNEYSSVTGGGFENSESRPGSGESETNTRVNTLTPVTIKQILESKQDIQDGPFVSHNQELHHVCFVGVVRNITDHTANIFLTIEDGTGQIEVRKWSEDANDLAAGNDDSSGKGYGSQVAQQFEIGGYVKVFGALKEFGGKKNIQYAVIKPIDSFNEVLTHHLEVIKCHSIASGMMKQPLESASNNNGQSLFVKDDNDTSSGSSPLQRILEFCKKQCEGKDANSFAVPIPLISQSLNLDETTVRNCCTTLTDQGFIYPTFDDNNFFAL
UniProt P26755: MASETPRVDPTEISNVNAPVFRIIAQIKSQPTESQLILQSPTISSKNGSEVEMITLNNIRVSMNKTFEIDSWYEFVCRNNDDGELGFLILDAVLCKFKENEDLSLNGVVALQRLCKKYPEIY

The target in assay [1] is Rfa1 (subunit of replication protein A), CBP-TEV-Rfa1 (budding yeast) (UniProt P22336). The experiment in a line: co-purification (tandem affinity purification, then gel filtration); RPA subunits co-expressed in yeast; whole-cell extract on calmodulin affinity resin with 2 mM CaCl2 (CBP on Rfa1), eluted with 2 mM EDTA and 2 mM EGTA; then anti-Flag M2 affinity gel (3×Flag on Rfa2), eluted with 0.5 mg/ml 3×Flag peptide; then Superdex 200 10/300 GL; binding buffer 25 mM Tris-HCl pH 7.2, 10% glycerol, 1 mM DTT, 500 mM NaCl; 4°C; Coomassie-stained gel. In general terms: Size exclusion chromatography separates by hydrodynamic size, large species first.

Assay [2] deals with Rfa2 (subunit of replication protein A), Rfa2-3×FLAG-Avi, biotinylated (budding yeast) (UniProt P26754). Described as above.
The target in assay [3] is T1, Orc1 (subunit of the origin recognition complex), Avi-CBP-Orc1, biotinylated (budding yeast) (UniProt P54784).
T1 sequence (chain, biotin on the Avi-tag (biotinylated by NLS-BirA in vivo, about 90%)): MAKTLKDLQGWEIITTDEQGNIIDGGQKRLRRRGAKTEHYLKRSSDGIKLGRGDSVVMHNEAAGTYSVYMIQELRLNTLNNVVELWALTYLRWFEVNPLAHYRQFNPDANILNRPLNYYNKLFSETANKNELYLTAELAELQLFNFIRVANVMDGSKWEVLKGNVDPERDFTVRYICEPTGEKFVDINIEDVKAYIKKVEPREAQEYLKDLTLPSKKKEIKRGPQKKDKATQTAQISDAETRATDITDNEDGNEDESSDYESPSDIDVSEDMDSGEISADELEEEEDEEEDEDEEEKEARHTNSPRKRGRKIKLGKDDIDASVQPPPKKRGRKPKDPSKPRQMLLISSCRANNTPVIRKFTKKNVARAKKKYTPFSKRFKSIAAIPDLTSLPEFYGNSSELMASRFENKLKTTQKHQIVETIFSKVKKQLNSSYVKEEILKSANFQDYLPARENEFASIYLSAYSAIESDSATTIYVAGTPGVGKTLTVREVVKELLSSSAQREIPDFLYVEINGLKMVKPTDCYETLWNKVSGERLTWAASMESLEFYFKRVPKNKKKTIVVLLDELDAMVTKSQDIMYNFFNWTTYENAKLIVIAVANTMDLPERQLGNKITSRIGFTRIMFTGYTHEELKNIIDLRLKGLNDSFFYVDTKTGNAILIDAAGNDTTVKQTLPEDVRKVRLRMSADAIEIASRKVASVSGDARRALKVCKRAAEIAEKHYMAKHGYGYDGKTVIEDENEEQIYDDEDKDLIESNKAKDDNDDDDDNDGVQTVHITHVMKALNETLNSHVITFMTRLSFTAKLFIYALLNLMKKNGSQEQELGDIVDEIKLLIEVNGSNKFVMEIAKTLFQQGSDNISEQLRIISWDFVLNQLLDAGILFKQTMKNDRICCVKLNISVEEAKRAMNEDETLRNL
The experiment in a line: co-purification (calmodulin affinity purification); ORC subunits co-expressed in yeast; purified on calmodulin affinity resin by the CBP tag on Orc1, protocol of Frigola et al. (2013); Coomassie-stained gel.

Turning to “Rfa2 (subunit of replication protein A), Rfa2-3×FLAG-Avi, biotinylated (from UniProt P26754 1-273)”, the binding result in assay [1] was “binds”.

For the molecule “Rfa3 (subunit of replication protein A) (from UniProt P26755 1-122)”, the binding entry in assay [2] and in assay [1] was “binds” in each case.

B1: Orc3 (subunit of the origin recognition complex) (protein, UniProt P54790 1-616)
chain: MSDLNQSKKMNVSEFADAQRSHYTVYPSLPQSNKNDKHIPFVKLLSGKESEVNVEKRWELYHQLHSHFHDQVDHIIDNIEADLKAEISDLLYSETTQKRRCFNTIFLLGSDSTTKIELKDESSRYNVLIELTPKESPNVRMMLRRSMYKLYSAADAEEHPTIKYEDINDEDGDFTEQNNDVSYDLSLVENFKRLFGKDLAMVFNFKDVDSINFNTLDNFIILLKSAFKYDHVKISLIFNINTNLSNIEKNLRQSTIRLLKRNYHKLDVSSNKGFKYGNQIFQSFLDTVDGKLNLSDRFVEFILSKMANNTNHNLQLLTKMLDYSLMSYFFQNAFSVFIDPVNVDFLNDDYLKILSRCPTFMFFVEGLIKQHAPADEILSLLTNKNRGLEEFFVEFLVRENPINGHAKFVARFLEEELNITNFNLIELYHNLLIGKLDSYLDRWSACKEYKDRLHFEPIDTIFQELFTLDNRSGLLTQSIFPSYKSNIEDNLLSWEQVLPSLDKENYDTLSGDLDKIMAPVLGQLFKLYREANMTINIYDFYIAFRETLPKEEILNFIRKDPSNTKLLELAETPDAFDKVALILFMQAIFAFENMGLIKFQSTKSYDLVEKCVWRGI
Take B1: the binding result in assay [3] is listed as “binds”.

B2: Orc4 (subunit of the origin recognition complex) (protein, UniProt P54791 1-529)
chain: MTISEARLSPQVNLLPIKRHSNEEVEETAAILKKRTIDNEKCKDSDPGFGSLQRRLLQQLYGTLPTDEKIIFTYLQDCQQEIDRIIKQSIIQKESHSVILVGPRQSYKTYLLDYELSLLQQSYKEQFITIRLNGFIHSEQTAINGIATQLEQQLQKIHGSEEKIDDTSLETISSGSLTEVFEKILLLLDSTTKTRNEDSGEVDRESITKITVVFIFDEIDTFAGPVRQTLLYNLFDMVEHSRVPVCIFGCTTKLNILEYLEKRVKSRFSQRVIYMPQIQNLDDMVDAVRNLLTVRSEISPWVSQWNETLEKELSDPRSNLNRHIRMNFETFRSLPTLKNSIIPLVATSKNFGSLCTAIKSCSFLDIYNKNQLSNNLTGRLQSLSDLELAILISAARVALRAKDGSFNFNLAYAEYEKMIKAINSRIPTVAPTTNVGTGQSTFSIDNTIKLWLKKDVKNVWENLVQLDFFTEKSAVGLRDNATAAFYASNYQFQGTMIPFDLRSYQMQIILQELRRIIPKSNMYYSWTQL
For B2, in assay [3], the binding result is reported as “binds”.

B3: Orc5 (subunit of the origin recognition complex) (protein, UniProt P50874 1-479)
chain: MNVTTPEVAFREYQTNCLASYISADPDITPSNLILQGYSGTGKTYTLKKYFNANPNLHAVWLEPVELVSWKPLLQAIARTVQYKLKTLYPNIPTTDYDPLQVEEPFLLVKTLHNIFVQYESLQEKTCLFLILDGFDSLQDLDAALFNKYIKLNELLPKDSKINIKFIYTMLETSFLQRYSTHCIPTVMFPRYNVDEVSTILVMSRCGELMEDSCLRKRIIEEQITDCTDDQFQNVAANFIHLIVQAFHSYTGNDIFALNDLIDFKWPKYVSRITKENIFEPLALYKSAIKLFLSTDDNLSENGQGESAITTNRDDLENSQTYDLSIISKYLLIASYICSYLEPRYDASIFSRKTRIIQGRAAYGRRKKKEVNPRYLQPSLFAIERLLAIFQAIFPIQGKAESGSLSALREESLMKANIEVFQNLSELHTLKLIATTMNKNIDYLSPKVRWKVNVPWEIIKEISESVHFNISDYFSDIHE
B3: the binding entry in assay [3] is given as “binds”.

The values are drawn from article PMC5662892.
